{
  "source": "patent EP4847622A1",
  "about": "“METHOD FOR PRODUCING VIRAL VECTOR” (dated 2026)",
  "origin": "cited, not measured here",
  "tested_on": "HEK293 cells",
  "conditions": "rAAV produced using HEK293 cells; cited from earlier work",
  "note": "The structures given here were assigned with low confidence; some may be wrong.",
  "data": [
    {"smiles": "CN(C)c1ccc(C(=O)NCCCCCCC(=O)NO)cc1", "values": [
      {"measurement": "titer of the rAAV8 genome", "result": "improved"}
    ]}
  ]
}
